# Experimental data taken from patent US20230310531A1, “TRIPTERYGIUM WILFORDII COMPOSITION FOR INHIBITING DRUG-RESISTANT CANCER, AND PREPARATION METHOD AND USE THEREOF” (HUAQIAO UNIVERSITY, priority 2022, published 2023).
# Some of these results come from one statement about several compounds together.
# System: H460/DDP cells
# Test: MTT cell proliferation inhibition, H460/DDP cells
# Type: cell-based, human
# Settings: administered in combination with the TP, dose not stated
# Method: The cisplatin-resistant cells of non-small cells, lung cancer cells A549 and H1299 and human large cells, lung cancer cells H460 (that is, A549/DDP, H1299/DDP, and H460/DDP), as well as normal human lung bronchial epithelial cells 16HBE were used as cultured cells. All the cells were cultured with a PRMI-1640 complete medium at 37° C. with a CO2 concentration of 5%. Three kinds of cell models were established by culturing the above cells to a certain amount.
# The three kinds of cells in a logarithmic growth phase obtained in step 1 were separately inoculated in a 96-well plate at a density of 5×10^4 cells/mL. 90 μL of the cells were added to each well, and a complete medium as a blank control group, a DMSO negative control, a TP positive control, and experimental groups with different concentrations of compounds were set up. Three replicate wells were set up in each group, and the cells were cultured in a carbon dioxide incubator for 24 h. Drugs were added in a volume of 10 μl to each well, such that final concentrations were 10 μg/ml, 20 μg/ml, 30 μg/ml, 40 μg/ml, and 50 μg/ml. […] The culture plate was placed in a microplate reader and shaken for 5 min to dissolve crystals. The cells were put into a microplate reader for detection, and a detection wavelength was set to OD=490 nm and a reference wavelength OD=630 nm to measure an absorbance of each well. […]
row,SMILES,CI values acting on H460/DDP cells
1,"CC(C)c1ccc2c(c1)C(=O)C[C@H]1[C@@](C)(CO)[C@@H](O)CC[C@]21C [Compound J, (3S,4S,5R,10S)-3,19-dihydroxy-7-ox-oabieta-8,11,13-triene]",less than 0.35
2,"CC(C)c1ccc2c(c1O)CC[C@H]1C(C)(C)[C@@H](O)CC[C@]21C [Compound P, Triptobenzene B]",less than 0.35
